Measured values reported in patent US20200138969A1 (published 2020).
No constants are given. Whether binding was seen depends on the method and setting. Some results given as binding are weak or reduced against the parent protein; the word gives no strength.

By UniProt entry, the sequences of proteins in these tests, tags left out. Where a name states a change or a piece, a line headed by the entry shows the natural chain unless it says otherwise.
UniProt Q9NYJ7: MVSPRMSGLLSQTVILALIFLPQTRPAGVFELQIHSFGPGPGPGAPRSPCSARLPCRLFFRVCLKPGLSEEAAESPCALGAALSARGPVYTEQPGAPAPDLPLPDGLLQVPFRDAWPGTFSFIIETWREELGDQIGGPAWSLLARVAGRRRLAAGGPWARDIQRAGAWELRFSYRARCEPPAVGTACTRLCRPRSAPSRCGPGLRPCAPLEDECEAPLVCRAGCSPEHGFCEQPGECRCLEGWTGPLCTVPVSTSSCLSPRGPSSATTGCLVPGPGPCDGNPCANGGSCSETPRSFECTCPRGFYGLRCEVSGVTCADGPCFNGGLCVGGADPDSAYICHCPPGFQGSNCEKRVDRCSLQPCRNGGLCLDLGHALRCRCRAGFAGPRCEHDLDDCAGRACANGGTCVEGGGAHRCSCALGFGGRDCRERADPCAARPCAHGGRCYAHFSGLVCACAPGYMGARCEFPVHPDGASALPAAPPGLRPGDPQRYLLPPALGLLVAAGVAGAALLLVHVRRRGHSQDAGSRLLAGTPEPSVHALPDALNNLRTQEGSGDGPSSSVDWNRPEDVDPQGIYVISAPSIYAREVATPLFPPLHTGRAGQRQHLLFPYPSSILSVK

Molecular target: human DLL3 (delta-like ligand 3), on the cell surface (human) (UniProt Q9NYJ7)
Assay: hybridoma screen: ELISA on immobilized DLL3 or flow cytometry on h293-hDLL3

Row | binding | Binder
1 | binds | SC16.121 (antibody, V domains shown) VH: EVQLVESGGGLVQPKGSLKLSCAASGFTFNTYAMNWVRQAPGKGLEWVARIRIKSNNYATYYADSVKDRFTISRDDSQNMLYLQMNNLKTEDTAVYYCVRQGYSYDWGPWFAYWGQGTLVTVSA VL: QIVLTQSPAIMSASPGEKVTITCSASSSVSYMHWFQQKPGTSPKLWIYSTSNLASGVPARFSGSGSGTSYSLTISRMEAEDAATYYCQQRSSYPPTFGGGTKLEIKR
2 | binds | SC16.130 (antibody, V domains shown) VH: EVQLQQSGPELVKPGASVKMSCKASGYTFTSYVMHWVKQKPGQGLEWIGYINPYNDGTEYNEKFKGKATLTSDKSSSTAYMELSSLTSEDSAVYYCARGVYDGYSYFDYWGQGTTLTVSS VL: DIQLTQSPASLSASVGETVTITCRASGSIHNYLAWYQQKQGKSPQLLVYNAKTLVDGVPSRFSGSGSGTQYSLKINSLQPEDFGYYYCQHFWTTPWTFGGGTKLEIK
3 | binds | SC16.125 (antibody, V domains shown) VH: DVQLQESGPDLVKPSQSLSLTCTVTGYSITSGYSWHWIRQFPGNKLEWMGYIHYSGSTNYNPSLKSRISITRDTSKNQFFLQFKSVTTEDSATYYCALEGNYDGFAYWGQGTLVTVS VL: DIQMNQSPSSLSASLGDTITITCHASQNINVWLSWYQQKPGNIPKLLIYKASILHTGVPSRFSGSGSGTGFTLTISSLQPEDIATYSCQQGQSYPYTFGGGTKLEIK
4 | binds | SC16.126 (antibody, V domains shown) VH: QVQMKESGPGLVAPSQSLSITCTVSGSSLTNYGVHWVRQPPGKGLEWLGVIWAGGSTNYNSALMSRLSISKDNSKSQVFLKMNSLQTDDTAMYYCARDWEGWFAYWGQGTLVTVSA VL: DIQMNQSPSSLSASLGDTITITCHASQNINVWLSWYQQKPGNIPKLLIYKASNLHTGVPSRFSGSGSGTGFTLTISSLQPEDIATYYCQQGQSYPFTFGSGTKLEIK
5 | binds | SC16.124 (antibody, V domains shown) VH: EVQLQQSGPELVKPGASVKMSCKASGYTFTSYVMHWVKQKPGQGLEWIGYINPYNDGTKYNEKFKGKATLTSDKSSSTAYMELSSLTSEDSAVYYCARGALYYGNYLGYFDVWGAGTTVTVSS VL: DIQMTQSPASQSASLGESVTITCLASQTIGTWLAWYQQKPGKSPQLLISAATSLADGVPSRFSGSGSGTKFSFKISSLQAEDFVSYYCQQLYSTPWTFGGGTKLEIK
6 | binds | SC16.132 (antibody, V domains shown) VH: QVQLKESGPGLVAPSQSLSITCTVSGFSLTDYGVSWIRQPPGKGLEWLGVVWGGGSTYYNSALKSRLSITKDNSKSQVFLKMNSLQTDDTAMYYCAKQRGQYGAYWGQGTLVTVSA VL: DIQMTQSPASQSASLGESVTITCLASQTIGTWLAWYQQKPGKSPQLLIYAATSLADGVPSRFSGSGSGTKFSFKISSLQAEDFVSYYCQQLYSTPWTFGGGTKLEIK
7 | binds | SC16.123 (antibody, V domains shown) VH: QVALKESGPGILQPSQTLSLTCSFSGFSLSTSGMGVGWIRQPSGKGLEWLAHIWWDDVKRYNPALKSRLTISKDTSSSQVFLKIASVDTADTATYYCARMEDYGSSSYFDFWGHGTTLTVSS VL: QIVLTQSPAIMSASLGERVTMTCTASSSVSSSYLHWYQQKPGSSPKLWIYSTSNLASGVPARFSGSGSGTSYSLTISSMETEDAATYYCHQYHRSPFTFGSGTKLEIK
